Drawing on patent US20090191217A1 (published 2009), this text covers binding for seven molecules.

Chains of the proteins cited; added tags and fusions are not shown. Residues count along the entry.
UniProt P14778, residues 18-332: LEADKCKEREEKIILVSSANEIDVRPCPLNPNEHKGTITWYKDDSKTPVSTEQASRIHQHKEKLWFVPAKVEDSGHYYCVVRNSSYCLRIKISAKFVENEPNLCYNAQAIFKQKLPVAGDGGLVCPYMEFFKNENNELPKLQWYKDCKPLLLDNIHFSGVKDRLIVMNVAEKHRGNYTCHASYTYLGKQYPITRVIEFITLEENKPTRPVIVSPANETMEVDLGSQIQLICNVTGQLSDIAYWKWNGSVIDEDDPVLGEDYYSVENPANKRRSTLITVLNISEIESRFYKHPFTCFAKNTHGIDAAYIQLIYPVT

Residue numbers refer to the chain shown, from its start. Results are given in words; binding and its absence hold for the method and conditions named. Some binding calls cover weakened binding; strength is not graded here.

Assay [1] deals with recombinant IL-1RI (R&D Systems) (UniProt P14778). Nature of the assay: supernatant receptor binding assay, ELISA, competition with IL-1β. (In an ELISA, binding on a coated surface is turned into a signal by an enzyme label.)
Assay [2] has the same target. Nature of the assay: SPR off-rate screening, BIACORE 3000, IL-1RI coupled to a CM5 chip, dAb supernatant as analyte. In general terms: In SPR one partner is held on a chip, and binding of the other changes the refractive index at the surface.

B1: DOM4-122 (protein)
VL: DIQMTQSPSSLSASVGDRVTITCRASQNIDRELRWYQQKPGKAPMLLIYHASRLQSGVPSRFSGSGSGTDFTLTISSLQPEDFATYYCQQYANWPLTFGQGTKVEIKR
With B1, the binding result in assay [1] is on record as “binds”.

B2: DOM4-129 (protein)
VL: B1 VL with A92H, N93D, W94F
Regarding B2, the binding result in assay [1] is reported as “binds”.

B3: DOM4-122-6 (other)
VL: B1 VL with N28W, D30G, L46F, A92H, N93G
In the case of B3, the binding entry in assay [2] was “binds”.

B4: DOM4-129-1 (other)
VL: B1 VL with L46F, S56R, A92H, N93D, W94F
As for B4, the binding result in assay [2] is “binds”.

B5: DOM4-130 (protein)
VL: DIQMTQSPSSLSASVGDRVTITCRASQDIYLNLNWYQQKPGKAPKLLIYGTSNLQSGVPSRFSGSGSGTDFTLTISSLQPEDFATYYCQPSFLYPYTFGQGTKVEIRR
Take B5: the binding entry in assay [1] is given as “binds”.

B6: DOM4-130-3 (other)
VL: B5 VL with N34D, L93Y, Y94F
Take B6: the binding result in assay [2] was “binds”.

B7: DOM4-130-46 (other)
VL: B5 VL with N34D, Y49N, G50F, T51G, N53E, L93Y, Y94F
Take B7: in assay [2], the binding result was “binds”.
